These results are taken from PubChem BioAssay AID248 (DTP/NCI, 2004).

The list is a part of this screen's results and no random one: it is rich in T/C values a quarter to a half above the control, in often repeated tests (any T/C) and in doses without a T/C. Further doses and runs are listed elsewhere. T/C gives the treated animals as a percentage of the vehicle group. Some doses have a count of surviving animals in place of a T/C: the source holds a T/C of zero for them, seemingly a mark for toxic or unscored doses. Some survivor counts are full or nearly so, which does not show that the dose was tolerated: survival well below the control is almost never listed, so the zero probably covers shortened survival too. Survivors were counted at the toxicity check, usually on the fifth day, unless a day is given; later deaths do not show. Schedule codes are those of the source, taken here to give the interval after Q, in days (D) or hours (H), and the number of doses after X. Some entries hold several experiments; the values are given in rising order. Some schedule codes hold Z or #, which are not explained here. Where survival is the endpoint, the PubChem record calls one and a half times the control and up active, and a quarter to a half above the control has no call in these data; cut-offs in other NCI protocols can differ. Some T/C values are followed by the survivors on the day toxicity was checked, most often the fifth; without a count, all were alive then.

The assay relates to L1210 leukemia ip in BDF1 mice, survival T/C. Kind of assay: NCI In Vivo Anticancer Drug Screen. Data for tumor model L1210 Leukemia (intraperitoneal) in B6D2F1 (BDF1) mice. The conditions noted are these: T/C endpoint: mean survival time, higher T/C = longer survival.
[1] abbreviates: dose: 100.0 mg/kg/injection, schedule: Q01DX009 (ip), vehicle: Klucel (hydroxypropylcellulose) (HPC).
Setting [2] is: dose: 200.0 mg/kg/injection, schedule: Q01DX009 (ip), vehicle: Klucel (hydroxypropylcellulose) (HPC).
Setting [3] is: dose: 400.0 mg/kg/injection, schedule: Q01DX009 (ip), vehicle: Klucel (hydroxypropylcellulose) (HPC).
[4] abbreviates: dose: 400.0 mg/kg/injection, schedule: Q04DX003 (ip), vehicle: Klucel (hydroxypropylcellulose) (HPC).
Where [5] appears, read: dose: 100.0 mg/kg/injection, schedule: Q01DX009 (ip), vehicle: saline with Tween-80.
Where [6] appears, read: dose: 200.0 mg/kg/injection, schedule: Q01DX009 (ip), vehicle: saline with Tween-80.
Setting [7] is: dose: 400.0 mg/kg/injection, schedule: Q04DX003 (ip), vehicle: saline with Tween-80.
Setting [8] is: dose: 200.0 mg/kg/injection, schedule: Q04DX002 (ip), vehicle: saline with Tween-80.
The mark [9] stands for this setting: dose: 400.0 mg/kg/injection, schedule: Q04DX002 (ip), vehicle: saline with Tween-80.
Where [10] appears, read: dose: 400.0 mg/kg/injection, schedule: Q01DX009 (ip), vehicle: saline with Tween-80.
The mark [11] stands for this setting: dose: 400.0 mg/kg/injection, schedule: Q04DX003 (ip), vehicle: saline.
[12] abbreviates: dose: 300.0 mg/kg/injection, schedule: Q01DX001 (ip), vehicle: carboxymethylcellulose (CMC).

Take `Nc1nc(N)nc(Nc2ccc([As]=O)cc2)n1` (configuration not stated): the survivor count runs as follows: under setting [1], 5 of 6; under setting [2], 6 of 6; under setting [3], 0 of 6.
Regarding `COc1ccc(C=C2C3C=CC2C2C(=O)OC(=O)C32)cc1` (configuration not stated), the survivor count under setting [3] is listed as 4 of 6.
For the compound `c1ccc2c(c1)C1c3ccccc3C2C2COCC12` (configuration not stated), the survivor count under setting [2] is 0 of 6 and the survivor count under setting [4] is reported as 2 of 6.
On to `O=C(Nc1ccccc1F)c1ccc(C(=O)Nc2ccccc2F)cc1`, for which the survivor count was 6 of 6 under setting [5], 6 of 6 under setting [6] and 5 of 6 under setting [7].
On to `O=C1CCC(=O)N1SC(Cl)(Cl)Cl`, for which the survivor count (dose: 160.0 mg/kg/injection, schedule: Q01DX009 (ip), vehicle: saline) is listed as 6 of 6; the survivor count under setting [8] was 3 of 3; the survivor count under setting [9] was 2 of 3.
Regarding `CCOC(=O)/C(C#N)=C\C=C\c1ccccc1`, the survivor count under setting [3] is recorded as 3 of 6.
Consider `COc1cc(C(=O)OC2CC34CCNC35CC(OC5(OC)C2O)c2cc3c(cc24)OCO3)ccc1O` (configuration not stated), for which the survivor count (dose: 4.0 mg/kg/injection, schedule: Q01DX009 (ip), vehicle: carboxymethylcellulose (CMC)) was 6 of 6 and the survivor count (dose: 8.0 mg/kg/injection, schedule: Q01DX009 (ip), vehicle: carboxymethylcellulose (CMC)) is 5 of 6.
Take `CN(C)CC/C(=N\N=C(N)N)c1ccccc1`: the survivor count is listed as 1 of 6 (dose: 120.0 mg/kg/injection, schedule: Q01DX Z (ip), vehicle: methylcellulose (MC)); 3 of 6 (dose: 120.0 mg/kg/injection, schedule: Q01DX Z (oral), vehicle: methylcellulose (MC)); 3 of 6 (dose: 240.0 mg/kg/injection, schedule: Q01DX Z (oral), vehicle: methylcellulose (MC)).
For `COc1ccc2c3c1OC1C(=O)CCC4C(C2)N(C)CCC314` (configuration not stated), the survivor count is on record as 2 of 6 (dose: 150.0 mg/kg/injection, schedule: Q01DX001 (ip), vehicle: saline) and 0 of 6 (dose: 300.0 mg/kg/injection, schedule: Q01DX001 (ip), vehicle: saline).
With `O=[As]1(c2cccc3ccccc23)c2ccccc2Cc2ccccc21`, the survivor count (dose: 55.0 mg/kg/injection, schedule: Q01DX Z (ip), vehicle: methylcellulose (MC)) is 6 of 6.
Turning to `Oc1c(Br)cc(Br)cc1C=NCC1CCC(CN=Cc2cc(Br)cc(Br)c2O)CC1` (configuration not stated), the survivor count under setting [5] was 3 of 3; the survivor count under setting [6] was 3 of 3 and 6 of 6.
In the case of `O=C(CN1C2CCC1CC(O)C2)NCC1C(c2ccccc2)C1c1ccccc1` (configuration not stated), the survivor count is, setting by setting: (dose: 100.0 mg/kg/injection, schedule: Q04DX002 (ip), vehicle: Klucel (hydroxypropylcellulose) (HPC)) 2 of 3; (dose: 200.0 mg/kg/injection, schedule: Q04DX002 (ip), vehicle: Klucel (hydroxypropylcellulose) (HPC)) 1 of 3; (dose: 400.0 mg/kg/injection, schedule: Q04DX002 (ip), vehicle: Klucel (hydroxypropylcellulose) (HPC)) 0 of 3.
As to `CO/N=C(/C)C1(O)Cc2c(O)c3c(c(O)c2C(OC2CC(N)C(O)C(C)O2)C1)C(=O)c1c(OC)cccc1C3=O` (configuration not stated), the survivor count (dose: 16.0 mg/kg/injection, schedule: Q04DX003 (ip), vehicle: water) is listed as 5 of 10; the survivor count (dose: 25.0 mg/kg/injection, schedule: Q01DX009 (ip), vehicle: saline with Tween-80) was 8 of 10; the survivor count (dose: 25.0 mg/kg/injection, schedule: Q04DX003 (ip), vehicle: saline) was 0 of 10; the survivor count (dose: 50.0 mg/kg/injection, schedule: Q01DX009 (ip), vehicle: saline with Tween-80) is 0 of 10; the survivor count (dose: 50.0 mg/kg/injection, schedule: Q04DX003 (ip), vehicle: saline) is 0 of 10; the survivor count (dose: 100.0 mg/kg/injection, schedule: Q04DX003 (ip), vehicle: saline) is given as 0 of 10.
For `CC(=O)Nn1cnc2c(=S)nc[nH]c21`, the T/C by setting is: (dose: 30.0 mg/kg/injection, schedule: Q01DX009 (ip), vehicle: saline with Tween-80) 125 % of control; (dose: 44.0 mg/kg/injection, schedule: Q01DX009 (ip), vehicle: saline with Tween-80) 125 and 129 % of control; (dose: 67.0 mg/kg/injection, schedule: Q01DX009 (ip), vehicle: saline with Tween-80) 146 % of control [5 of 6 alive]; under setting [5], 135 and 146 % of control [4 of 6 alive]; (dose: 400.0 mg/kg/injection, schedule: Q01DX001 (ip), vehicle: saline with Tween-80) 128 % of control [4 of 6 alive]. Also, the survivor count (dose: 150.0 mg/kg/injection, schedule: Q01DX009 (ip), vehicle: saline with Tween-80) is recorded as 3 of 6; the survivor count under setting [10] was 0 of 6; the survivor count (dose: 600.0 mg/kg/injection, schedule: Q01DX001 (ip), vehicle: saline with Tween-80) was 1 of 6.
Take `CN(C)Cc1c[nH]c2ccsc12`: under setting [7], the survivor count was 6 of 6.
`CCC(=O)Oc1ccc(/C=N/NC(N)=S)nc1`: the T/C was 129 % of control under setting [8] and 129 % of control under setting [9].
In the case of `O=[N+]([O-])c1ccc(S(=O)CCl)cc1` (configuration not stated), the survivor count under setting [4] was 2 of 6.
With `O=C(CCCCl)CC(O)(C(F)(F)Cl)C(F)(F)Cl`, under setting [7], the survivor count was 6 of 6.
As to `NNCCO`, the survivor count under setting [5] is given as 0 of 3; the survivor count (dose: 100.0 mg/kg/injection, schedule: Q04DX002 (ip), vehicle: saline with Tween-80) is 1 of 3; the survivor count under setting [8] is recorded as 0 of 3; the survivor count under setting [9] is on record as 0 of 3.
For `O=S(=O)(O)c1ccccc1/C=N\N=C\c1ccccc1S(=O)(=O)O`, under setting [11], the T/C is 130 % of control.
In the case of `c1ccc(CNCc2ccccn2)nc1`, the survivor count (dose: 200.0 mg/kg/injection, schedule: Q04DX002 (ip), vehicle: saline) was 0 of 3 and the survivor count (dose: 400.0 mg/kg/injection, schedule: Q04DX002 (ip), vehicle: saline) is listed as 0 of 3.
On to `Cc1ncc2c[n+]([O-])ccn12`, for which, under setting [11], the survivor count is on record as 0 of 6.
For `CC(CN1c2ccccc2Sc2ccc(Cl)cc21)N(C)CCCl` (configuration not stated), under “dose: 150.0 mg/kg/injection, schedule: Q01DX001 (ip), vehicle: carboxymethylcellulose (CMC)”, the survivor count is 1 of 6 and 3 of 6. Under setting [12], the T/C is 126 % of control [4 of 6 alive] and the survivor count was 0 of 6.
Turning to `CC1CN=C(c2ccc(Br)cc2)O1` (configuration not stated), under setting [10], the survivor count was 2 of 6.
`O=[N+]([O-])c1cc(S(=O)(=O)c2ccc(Cl)c([N+](=O)[O-])c2)ccc1Cl`: the survivor count under setting [1] was 6 of 6.
For the compound `Cc1ccc2c(ccc(/C=C/c3ccc(O)c4ncccc34)[n+]2C)c1`, the T/C by setting is: (dose: 50.0 mg/kg/injection, schedule: Q01DX009 (ip), vehicle: Klucel (hydroxypropylcellulose) (HPC)) 126 % of control; (dose: 75.0 mg/kg/injection, schedule: Q01DX009 (ip), vehicle: Klucel (hydroxypropylcellulose) (HPC)) 126 % of control. Further, the survivor count reads like this: (dose: 150.0 mg/kg/injection, schedule: Q01DX009 (ip), vehicle: Klucel (hydroxypropylcellulose) (HPC)) 2 of 6; (dose: 300.0 mg/kg/injection, schedule: Q01DX009 (ip), vehicle: Klucel (hydroxypropylcellulose) (HPC)) 0 of 6; under setting [4], 1 of 6; (dose: 800.0 mg/kg/injection, schedule: Q04DX003 (ip), vehicle: Klucel (hydroxypropylcellulose) (HPC)) 0 of 6.
For the compound `c1ccc([CH2][Pb]([c]2ccccc2)([c]2ccccc2)[c]2ccccc2)cc1`, under “dose: 100.0 mg/kg/injection, schedule: Q01DX001 (ip), vehicle: saline with Tween-80”, the survivor count is on record as 5 of 6.
Regarding `COc1ccccc1[N+](C)(C)C`, the survivor count is, setting by setting: (dose: 200.0 mg/kg/injection, schedule: Q01DX001 (ip), vehicle: saline) 0 of 4; (dose: 400.0 mg/kg/injection, schedule: Q01DX001 (ip), vehicle: saline) 0 of 4.
